We go through three molecules from doi:10.1101/219071.

Results are given in words; binding and its absence hold for the method and conditions named. In cells and extracts the contact can be indirect. A yes stands for co-enrichment or nearness to the bait. Other partners may have been found.

B1: RNA-binding protein 14 (RMB14) (protein, UniProt Q96PK6 1-669)
chain: MKIFVGNVDGADTTPEELAALFAPYGTVMSCAVMKQFAFVHMRENAGALRAIEALHGHELRPGRALVVEMSRPRPLNTWKIFVGNVSAACTSQELRSLFERRGRVIECDVVKDYAFVHMEKEADAKAAIAQLNGKEVKGKRINVELSTKGQKKGPGLAVQSGDKTKKPGAGDTAFPGTGGFSATFDYQQAFGNSTGGFDGQARQPTPPFFGRDRSPLRRSPPRASYVAPLTAQPATYRAQPSVSLGAAYRAQPSASLGVGYRTQPMTAQAASYRAQPSVSLGAPYRGQLASPSSQSAAASSLGPYGGAQPSASALSSYGGQAAAASSLNSYGAQGSSLASYGNQPSSYGAQAASSYGVRAAASSYNTQGAASSLGSYGAQAASYGAQSAASSLAYGAQAASYNAQPSASYNAQSAPYAAQQAASYSSQPAAYVAQPATAAAYASQPAAYAAQATTPMAGSYGAQPVVQTQLNSYGAQASMGLSGSYGAQSAAAATGSYGAAAAYGAQPSATLAAPYRTQSSASLAASYAAQQHPQAAASYRGQPGNAYDGAGQPSAAYLSMSQGAVANANSTPPPYERTRLSPPRASYDDPYKKAVAMSKRYGSDRRLAELSDYRRLSESQLSFRRSPTKSSLDYRRLPDAHSDYARYSGSYNDYLRAAQMHSGYQRRM
B2: Treacle protein (endogenous) (protein, UniProt Q13428 1-1488)
chain: MAEARKRRELLPLIYHHLLRAGYVRAAREVKEQSGQKCFLAQPVTLLDIYTHWQQTSELGRKRKAEEDAALQAKKTRVSDPISTSESSEEEEEAEAETAKATPRLASTNSSVLGADLPSSMKEKAKAETEKAGKTGNSMPHPATGKTVANLLSGKSPRKSAEPSANTTLVSETEEEGSVPAFGAAAKPGMVSAGQADSSSEDTSSSSDETDVEGKPSVKPAQVKASSVSTKESPARKAAPAPGKVGDVTPQVKGGALPPAKRAKKPEEESESSEEGSESEEEAPAGTRSQVKASEKILQVRAASAPAKGTPGKGATPAPPGKAGAVASQTKAGKPEEDSESSSEESSDSEEETPAAKALLQAKASGKTSQVGAASAPAKESPRKGAAPAPPGKTGPAVAKAQAGKREEDSQSSSEESDSEEEAPAQAKPSGKAPQVRAASAPAKESPRKGAAPAPPRKTGPAAAQVQVGKQEEDSRSSSEESDSDREALAAMNAAQVKPLGKSPQVKPASTMGMGPLGKGAGPVPPGKVGPATPSAQVGKWEEDSESSSEESSDSSDGEVPTAVAPAQEKSLGNILQAKPTSSPAKGPPQKAGPVAVQVKAEKPMDNSESSEESSDSADSEEAPAAMTAAQAKPALKIPQTKACPKKTNTTASAKVAPVRVGTQAPRKAGTATSPAGSSPAVAGGTQRPAEDSSSSEESDSEEEKTGLAVTVGQAKSVGKGLQVKAASVPVKGSLGQGTAPVLPGKTGPTVTQVKAEKQEDSESSEEESDSEEAAASPAQVKTSVKKTQAKANPAAARAPSAKGTISAPGKVVTAAAQAKQRSPSKVKPPVRNPQNSTVLARGPASVPSVGKAVATAAQAQTGPEEDSGSSEEESDSEEEAETLAQVKPSGKTHQIRAALAPAKESPRKGAAPTPPGKTGPSAAQAGKQDDSGSSSEESDSDGEAPAAVTSAQVIKPPLIFVDPNRSPAGPAATPAQAQAASTPRKARASESTARSSSSESEDEDVIPATQCLTPGIRTNVVTMPTAHPRIAPKASMAGASSSKESSRISDGKKQEGPATQVSKKNPASLPLTQAALKVLAQKASEAQPPVARTQPSSGVDSAVGTLPATSPQSTSVQAKGTNKLRKPKLPEVQQATKAPESSDDSEDSSDSSSGSEEDGEGPQGAKSAHTLGPTPSRTETLVEETAAESSEDDVVAPSQSLLSGYMTPGLTPANSQASKATPKLDSSPSVSSTLAAKDDPDGKQEAKPQQAAGMLSPKTGGKEAASGTTPQKSRKPKKGAGNPQASTLALQSNITQCLLGQPWPLNEAQVQASVVKVLTELLEQERKKVVDTTKESSRKGWESRKRKLSGDQPAARTPRSKKKKKLGAGEGGEASVSPEKTSTTSKGKAKRDKASGDVKEKKGKGSLGSQGAKDEPEEELQKGMGTVEGGDQSNPKSKKEKKKSDKRKKDKEKKEKKKKAKKASTKDSESPSQKKKKKKKKTAEQTV

This test deals with HeV M protein fused to green fluorescent protein (GFP-HeV M), wild type (Hendra virus) (UniProt O89341). The test can be described thus: affinity purification with mass spectrometry.
For the molecule “nucleolar and coiled-body phosphoprotein 1 (NOLC1) (from UniProt Q14978 1-699)”, the binding result was “binds”.
Under B1 stands “binds”.
Consider B2, for which the binding entry is listed as “binds”.
